According to publication PMC11357106:
No constants are given. Whether binding was seen depends on the method and setting. Binding seen in cells or lysates may run through a third protein. These calls come from enrichment with a bait or labelling near it, and not all partners need be listed. Sequences can lack the tags named with a protein.

The chains behind the UniProt entries cited, without tags or fusion partners. Where a name states a change or a piece, a line headed by the entry shows the natural chain unless it says otherwise.
UniProt Q9SD86: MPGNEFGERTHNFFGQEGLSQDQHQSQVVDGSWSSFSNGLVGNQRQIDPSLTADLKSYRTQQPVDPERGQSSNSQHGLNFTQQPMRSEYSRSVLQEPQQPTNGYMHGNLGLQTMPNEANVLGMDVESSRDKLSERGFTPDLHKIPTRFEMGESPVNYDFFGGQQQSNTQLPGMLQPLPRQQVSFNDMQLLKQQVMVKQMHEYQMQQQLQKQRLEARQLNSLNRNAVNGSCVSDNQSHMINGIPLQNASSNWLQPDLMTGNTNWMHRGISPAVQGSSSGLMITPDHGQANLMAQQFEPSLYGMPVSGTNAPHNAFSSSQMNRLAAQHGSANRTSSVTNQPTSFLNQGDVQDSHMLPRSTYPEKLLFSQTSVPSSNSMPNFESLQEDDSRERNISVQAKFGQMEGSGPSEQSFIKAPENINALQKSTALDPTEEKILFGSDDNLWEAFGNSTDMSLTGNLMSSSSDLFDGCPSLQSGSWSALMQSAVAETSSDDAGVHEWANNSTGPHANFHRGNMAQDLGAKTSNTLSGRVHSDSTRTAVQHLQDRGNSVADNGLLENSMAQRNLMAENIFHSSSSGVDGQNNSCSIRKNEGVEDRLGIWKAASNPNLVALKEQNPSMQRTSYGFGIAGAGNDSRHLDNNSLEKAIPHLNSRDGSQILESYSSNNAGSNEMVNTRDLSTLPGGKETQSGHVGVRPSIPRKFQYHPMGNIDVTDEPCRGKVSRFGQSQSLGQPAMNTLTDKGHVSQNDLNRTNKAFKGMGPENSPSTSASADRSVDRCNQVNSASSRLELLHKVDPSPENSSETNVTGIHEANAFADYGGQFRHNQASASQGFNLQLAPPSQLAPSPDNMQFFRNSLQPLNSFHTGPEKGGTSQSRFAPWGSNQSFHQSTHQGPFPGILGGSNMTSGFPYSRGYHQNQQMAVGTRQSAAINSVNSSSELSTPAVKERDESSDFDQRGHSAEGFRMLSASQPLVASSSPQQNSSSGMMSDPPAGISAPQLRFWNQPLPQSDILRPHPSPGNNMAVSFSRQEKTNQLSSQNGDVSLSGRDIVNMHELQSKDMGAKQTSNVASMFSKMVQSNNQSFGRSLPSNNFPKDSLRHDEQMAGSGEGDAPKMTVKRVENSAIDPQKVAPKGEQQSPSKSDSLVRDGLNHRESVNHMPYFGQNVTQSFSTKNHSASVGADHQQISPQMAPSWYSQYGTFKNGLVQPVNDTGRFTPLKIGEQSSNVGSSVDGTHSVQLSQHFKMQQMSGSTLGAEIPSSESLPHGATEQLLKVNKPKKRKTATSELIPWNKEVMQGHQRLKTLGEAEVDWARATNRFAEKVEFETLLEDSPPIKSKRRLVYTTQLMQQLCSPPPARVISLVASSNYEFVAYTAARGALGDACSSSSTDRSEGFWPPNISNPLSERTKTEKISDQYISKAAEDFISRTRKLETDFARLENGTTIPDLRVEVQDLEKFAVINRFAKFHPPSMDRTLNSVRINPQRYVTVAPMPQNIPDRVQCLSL
UniProt F4IPJ1: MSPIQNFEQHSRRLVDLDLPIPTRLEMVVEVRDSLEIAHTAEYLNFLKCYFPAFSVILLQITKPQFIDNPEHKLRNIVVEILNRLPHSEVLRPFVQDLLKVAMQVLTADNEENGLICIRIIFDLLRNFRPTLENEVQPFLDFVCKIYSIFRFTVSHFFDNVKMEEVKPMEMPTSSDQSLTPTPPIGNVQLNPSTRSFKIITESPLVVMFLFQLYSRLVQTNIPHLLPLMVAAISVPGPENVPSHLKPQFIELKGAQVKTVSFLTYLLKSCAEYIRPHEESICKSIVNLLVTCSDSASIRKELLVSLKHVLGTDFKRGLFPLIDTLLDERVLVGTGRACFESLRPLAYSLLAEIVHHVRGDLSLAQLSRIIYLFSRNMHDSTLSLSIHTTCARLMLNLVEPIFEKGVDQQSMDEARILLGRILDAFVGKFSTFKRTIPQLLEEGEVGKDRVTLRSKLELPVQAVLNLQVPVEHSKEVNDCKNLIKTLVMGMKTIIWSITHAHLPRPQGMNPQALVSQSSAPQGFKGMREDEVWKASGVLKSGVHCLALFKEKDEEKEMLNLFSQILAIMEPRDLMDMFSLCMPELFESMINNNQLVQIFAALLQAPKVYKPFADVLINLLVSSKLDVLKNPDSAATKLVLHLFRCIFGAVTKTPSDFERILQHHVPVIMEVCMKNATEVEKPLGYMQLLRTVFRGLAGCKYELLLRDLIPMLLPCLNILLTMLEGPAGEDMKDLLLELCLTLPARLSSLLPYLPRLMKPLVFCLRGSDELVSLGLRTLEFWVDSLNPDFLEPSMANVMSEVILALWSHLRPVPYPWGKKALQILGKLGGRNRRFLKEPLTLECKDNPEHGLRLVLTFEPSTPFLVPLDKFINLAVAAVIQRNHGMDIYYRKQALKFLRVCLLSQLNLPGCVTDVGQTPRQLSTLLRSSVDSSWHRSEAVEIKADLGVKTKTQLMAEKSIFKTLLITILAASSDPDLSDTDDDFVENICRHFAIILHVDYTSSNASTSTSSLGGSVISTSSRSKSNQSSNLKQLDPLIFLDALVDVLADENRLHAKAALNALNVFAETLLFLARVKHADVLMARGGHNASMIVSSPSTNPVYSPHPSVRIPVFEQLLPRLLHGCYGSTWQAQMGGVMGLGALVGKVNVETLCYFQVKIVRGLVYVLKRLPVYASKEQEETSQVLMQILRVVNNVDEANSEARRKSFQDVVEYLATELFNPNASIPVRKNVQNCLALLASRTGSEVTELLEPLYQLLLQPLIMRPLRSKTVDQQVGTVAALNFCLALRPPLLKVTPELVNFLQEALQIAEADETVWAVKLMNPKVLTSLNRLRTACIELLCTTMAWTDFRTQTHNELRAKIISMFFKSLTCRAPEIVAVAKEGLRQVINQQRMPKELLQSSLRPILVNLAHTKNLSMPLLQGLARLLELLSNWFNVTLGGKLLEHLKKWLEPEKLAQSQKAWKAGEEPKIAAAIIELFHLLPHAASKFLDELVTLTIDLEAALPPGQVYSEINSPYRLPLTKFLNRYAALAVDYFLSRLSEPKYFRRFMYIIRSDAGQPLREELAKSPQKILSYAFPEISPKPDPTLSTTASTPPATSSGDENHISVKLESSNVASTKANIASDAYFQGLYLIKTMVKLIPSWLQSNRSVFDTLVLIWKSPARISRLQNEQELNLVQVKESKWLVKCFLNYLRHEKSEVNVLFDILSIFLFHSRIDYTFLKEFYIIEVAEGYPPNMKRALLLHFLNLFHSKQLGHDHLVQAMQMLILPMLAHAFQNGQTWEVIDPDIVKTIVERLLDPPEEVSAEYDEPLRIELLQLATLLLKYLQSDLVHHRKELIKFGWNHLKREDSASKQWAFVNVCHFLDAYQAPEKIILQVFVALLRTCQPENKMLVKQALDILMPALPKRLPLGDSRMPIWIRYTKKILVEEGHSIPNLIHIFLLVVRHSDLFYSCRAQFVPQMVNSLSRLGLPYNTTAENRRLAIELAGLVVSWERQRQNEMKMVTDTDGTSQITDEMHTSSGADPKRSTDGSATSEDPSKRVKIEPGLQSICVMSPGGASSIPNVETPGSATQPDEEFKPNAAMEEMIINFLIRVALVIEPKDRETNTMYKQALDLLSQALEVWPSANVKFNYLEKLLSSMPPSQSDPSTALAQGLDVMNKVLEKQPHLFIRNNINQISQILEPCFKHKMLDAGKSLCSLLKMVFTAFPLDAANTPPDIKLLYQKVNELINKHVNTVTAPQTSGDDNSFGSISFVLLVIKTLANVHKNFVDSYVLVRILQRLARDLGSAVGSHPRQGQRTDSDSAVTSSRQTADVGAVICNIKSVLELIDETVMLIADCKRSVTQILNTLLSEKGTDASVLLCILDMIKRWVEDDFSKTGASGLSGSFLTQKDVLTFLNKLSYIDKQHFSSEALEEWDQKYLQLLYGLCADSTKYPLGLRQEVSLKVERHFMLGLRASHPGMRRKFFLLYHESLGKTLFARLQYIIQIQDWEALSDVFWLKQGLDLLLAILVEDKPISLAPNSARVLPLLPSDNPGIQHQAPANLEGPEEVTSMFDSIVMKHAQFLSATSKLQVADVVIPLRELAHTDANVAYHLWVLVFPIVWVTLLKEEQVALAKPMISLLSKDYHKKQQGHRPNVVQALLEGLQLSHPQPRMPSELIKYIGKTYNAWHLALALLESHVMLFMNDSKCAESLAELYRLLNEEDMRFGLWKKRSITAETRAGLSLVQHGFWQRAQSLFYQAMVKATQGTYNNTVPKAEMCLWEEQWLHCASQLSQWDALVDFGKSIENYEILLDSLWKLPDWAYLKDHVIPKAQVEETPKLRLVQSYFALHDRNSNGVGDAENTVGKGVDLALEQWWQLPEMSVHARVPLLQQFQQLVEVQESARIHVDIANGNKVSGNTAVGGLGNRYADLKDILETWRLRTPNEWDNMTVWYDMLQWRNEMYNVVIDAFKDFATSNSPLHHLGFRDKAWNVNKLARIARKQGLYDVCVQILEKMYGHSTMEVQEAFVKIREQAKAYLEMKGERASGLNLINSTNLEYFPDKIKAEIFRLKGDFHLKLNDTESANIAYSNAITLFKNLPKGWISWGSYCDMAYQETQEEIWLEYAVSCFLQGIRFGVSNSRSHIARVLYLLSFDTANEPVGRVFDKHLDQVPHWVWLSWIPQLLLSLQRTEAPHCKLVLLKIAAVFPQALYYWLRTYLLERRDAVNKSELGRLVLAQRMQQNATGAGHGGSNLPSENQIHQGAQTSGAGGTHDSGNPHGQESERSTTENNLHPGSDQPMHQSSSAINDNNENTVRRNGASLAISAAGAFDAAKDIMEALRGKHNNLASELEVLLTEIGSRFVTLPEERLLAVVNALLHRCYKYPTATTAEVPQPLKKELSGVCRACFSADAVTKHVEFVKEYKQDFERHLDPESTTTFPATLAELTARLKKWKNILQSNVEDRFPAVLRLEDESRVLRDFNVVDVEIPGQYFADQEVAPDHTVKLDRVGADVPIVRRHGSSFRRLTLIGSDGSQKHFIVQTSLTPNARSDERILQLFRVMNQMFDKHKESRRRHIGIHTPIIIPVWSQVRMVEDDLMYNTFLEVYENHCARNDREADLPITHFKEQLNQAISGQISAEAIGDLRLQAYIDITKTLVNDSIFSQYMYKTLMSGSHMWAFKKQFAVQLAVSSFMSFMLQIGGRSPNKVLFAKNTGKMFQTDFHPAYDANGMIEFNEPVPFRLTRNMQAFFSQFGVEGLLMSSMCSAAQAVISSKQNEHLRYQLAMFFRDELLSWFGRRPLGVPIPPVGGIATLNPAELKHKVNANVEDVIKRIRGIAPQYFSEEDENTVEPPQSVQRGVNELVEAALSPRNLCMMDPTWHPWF
UniProt Q9LM88: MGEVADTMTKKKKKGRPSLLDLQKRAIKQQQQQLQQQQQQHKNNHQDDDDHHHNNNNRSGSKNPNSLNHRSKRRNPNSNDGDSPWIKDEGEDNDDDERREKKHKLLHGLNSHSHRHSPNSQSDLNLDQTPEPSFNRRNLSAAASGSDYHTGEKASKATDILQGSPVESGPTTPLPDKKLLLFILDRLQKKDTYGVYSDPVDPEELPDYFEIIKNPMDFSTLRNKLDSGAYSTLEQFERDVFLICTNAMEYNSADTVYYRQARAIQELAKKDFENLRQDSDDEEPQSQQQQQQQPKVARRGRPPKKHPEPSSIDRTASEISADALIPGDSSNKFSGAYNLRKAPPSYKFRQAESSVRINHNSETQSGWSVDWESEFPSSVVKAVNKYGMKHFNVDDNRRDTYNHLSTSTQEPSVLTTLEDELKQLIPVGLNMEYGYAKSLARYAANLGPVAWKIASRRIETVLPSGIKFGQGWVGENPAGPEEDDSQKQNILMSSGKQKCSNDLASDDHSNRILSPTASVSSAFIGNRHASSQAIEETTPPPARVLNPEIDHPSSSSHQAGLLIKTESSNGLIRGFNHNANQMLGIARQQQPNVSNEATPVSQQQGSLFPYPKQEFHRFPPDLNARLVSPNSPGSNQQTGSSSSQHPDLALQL
UniProt Q9FMT4: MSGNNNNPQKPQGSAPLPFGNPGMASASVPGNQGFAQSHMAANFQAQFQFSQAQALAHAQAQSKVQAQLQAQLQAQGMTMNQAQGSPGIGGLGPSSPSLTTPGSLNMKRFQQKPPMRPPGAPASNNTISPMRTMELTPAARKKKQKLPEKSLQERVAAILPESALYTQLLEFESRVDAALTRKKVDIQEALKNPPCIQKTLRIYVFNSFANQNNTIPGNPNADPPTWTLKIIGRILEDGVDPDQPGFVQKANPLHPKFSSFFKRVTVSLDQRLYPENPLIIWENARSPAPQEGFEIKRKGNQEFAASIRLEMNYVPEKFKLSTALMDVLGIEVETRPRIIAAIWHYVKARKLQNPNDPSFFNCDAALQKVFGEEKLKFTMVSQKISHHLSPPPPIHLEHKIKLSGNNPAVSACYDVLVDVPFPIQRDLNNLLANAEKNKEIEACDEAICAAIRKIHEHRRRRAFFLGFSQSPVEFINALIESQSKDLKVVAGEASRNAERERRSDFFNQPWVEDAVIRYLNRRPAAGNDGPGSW

What follows are molecules tested against T1, SCREAM (SCRM) fused to TurboID and Venus (SCRMp::SCRM-TbID-Venus) (Arabidopsis thaliana) (UniProt Q9LSE2) (assay: proximity labelling; TurboID on SCRM (SCRMp::SCRM-TbID-Venus in homozygous scrm/ice1-2), 5-day-old seedlings, 50 uM biotin, streptavidin beads, LC-MS with label-free quantification; enrichment against WT, SPCHp- and FAMAp-driven nuclear TbID and untreated SCRM-TbID samples).
T1 sequence: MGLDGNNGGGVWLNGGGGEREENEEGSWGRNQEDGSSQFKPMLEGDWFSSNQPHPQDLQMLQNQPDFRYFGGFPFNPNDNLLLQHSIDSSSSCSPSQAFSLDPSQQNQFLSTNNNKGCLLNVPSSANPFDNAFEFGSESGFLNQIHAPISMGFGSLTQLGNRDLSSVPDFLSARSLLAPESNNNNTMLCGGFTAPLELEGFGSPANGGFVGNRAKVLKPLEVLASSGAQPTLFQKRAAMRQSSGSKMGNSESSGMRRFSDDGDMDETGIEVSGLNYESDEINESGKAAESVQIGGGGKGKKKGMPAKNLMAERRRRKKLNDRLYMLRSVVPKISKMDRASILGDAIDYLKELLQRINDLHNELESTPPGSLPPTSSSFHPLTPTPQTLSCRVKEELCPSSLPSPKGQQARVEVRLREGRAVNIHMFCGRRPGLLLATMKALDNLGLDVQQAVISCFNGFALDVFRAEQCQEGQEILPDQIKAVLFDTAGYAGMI

Molecule	binding
SYS3 (from UniProt Q9SD86)	binds
BRAHMA (BRM), core ATPase of the SWI/SNF complex (from UniProt Q6EVK6 1-2193)	binds
TRA1a (SAGA complex) (from UniProt F4IPJ1)	binds
BRD1, core bromodomain-containing protein of the SWI/SNF complex (from UniProt Q9LM88)	binds
SWP73B (from UniProt Q9FMT4)	binds
SYS1	binds
BRIP2 (from UniProt Q9LF51)	binds
SPT20/PHL (SAGA complex) (protein, UniProt F4IDB2 1-1325) MGVSFKISKVGRKFRPKISTELATPDSPKAIVLSGKPKATDDSNIGDVSGFSKPSLPDISPDHEVSFILSLYPNGYSIGKTSEAMQQISFRDVPKVLHPYDRAAEGLLSAIEAGRLPGDILEDIPCKFVDGVVICEVHDYRKHTSSQVSPVINKLRLKMSLENVVKDIPSMSDNSWTYGDLMEVESRILKALQPELCLDPLPRLDRLSKNPLTAKLDLSLSTLRRKRLRQMAEVTVMSQNKIQGKKVCIDRLPESSERGNLPGHLIMQQTNNNQAIQNLGTNMLAGLRSQPLQDAPNSSLALVPPQQQRYMGIGSTRNTQDQGSNSVSVSGASPGGLDAMLPYGSDSMNPGTSFHRKRESQEGQMSSMPGLNKRTRVSHMGPDGVPQQQLGQRMDGLHGSDTNWKNTLLQHQDMLGRSIQYPNTSIQRFSPHQMEGVMNQEGGPMQFPASQQGGMKYTSKEEPFETGKIDGGTRNNIPGVGSDANDLDPRIQSRMPHNAFIRSNFPQTSWNVNPGQQIEKEPKKEEQFSRRISAQSPRLSAGGPPQSPLSSKSGEFSGGSMGTHYGAVAAAQKDKAVTSIPAIGATQSVGSSANEAMQQRQHQAQMAAKRRTNSLPKTQVISTVGSPVSVNTISVPVNARSPSVGPQTLGDHAILDRFSKIERVAARYQLNCKKHKVDEYSRRPRVYAKQPLTVCLSNLSNEEVFKDEDEALSKSIFGGSMNTYKTRVIHFGQMERVMQGSVPSFIPRNRTRLVMSEKAVDGTVAWYQGDVDEGDVFQAEDFLLALPNTHIADLLATQFKSLMAREGYMIEEHIMAKPNRGDTGPISSHPNSAGGYPRGYSANDMQQYGDAVAGQASGEASKHGNTGNTPNNSTQNILANARMVPPTNSQALQMSQGLLSGVSMPMQPQQLDPQQSALLSSHSQQKNQQSMFTQQQHPQMQRPSMILPTNPLSAINSMSQSSGMQPGGQMANKYSPLQLQMLQQQQQAAVQKKIMMGLGSGVGMGMGMGMGMGMGSMGNSIAGLGALGNQLNMAGRGMGGTGISSSMSVPGIGNMGQNPMNLNPASNLNAISQQLRSGALTPQQNALFTQIRMGMANRGGVMGAPQTGISGVSGTRQMHPSSAGLSMLDQNRANLQRAAAMGNMGPPKLMPGMMNLYMNQQQQQQQLQQQPQQQQLQHQQQLQQPMSQPSQQLAQSPQQQQQLQQHEQPQQAQQQQQATASPLQSVLSPPQVGSPSAGITQQQLQQSSPQQMSQRTPMSPQQVNQRTPMSPQISSGAMHPMSTSNLEGCPASPQLSSQTMGSVGSITNSPMELQGPKNNSAGNNS	binds
… (SPCH) (protein, UniProt Q700C7 1-364) MQEIIPDFLEECEFVDTSLAGDDLFAILESLEGAGEISPTAASTPKDGTTSSKELVKDQDYENSSPKRKKQRLETRKEEDEEEEDGDGEAEEDNKQDGQQKMSHVTVERNRRKQMNEHLTVLRSLMPCFYVKRGDQASIIGGVVEYISELQQVLQSLEAKKQRKTYAEVLSPRVVPSPRPSPPVLSPRKPPLSPRINHHQIHHHLLLPPISPRTPQPTSPYRAIPPQLPLIPQPPLRSYSSLASCSSLGDPPPYSPASSSSSPSVSSNHESSVINELVANSKSALADVEVKFSGANVLLKTVSHKIPGQVMKIIAALEDLALEILQVNINTVDETMLNSFTIKIGIECQLSAEELAQQIQQTFC	binds
FAMA (protein, UniProt Q56YJ8 1-414) MDKDYSAPNFLGESSGGNDDNSSGMIDYMFNRNLQQQQKQSMPQQQQHQLSPSGFGATPFDKMNFSDVMQFADFGSKLALNQTRNQDDQETGIDPVYFLKFPVLNDKIEDHNQTQHLMPSHQTSQEGGECGGNIGNVFLEEKEDQDDDNDNNSVQLRFIGGEEEDRENKNVTKKEVKSKRKRARTSKTSEEVESQRMTHIAVERNRRKQMNEHLRVLRSLMPGSYVQRGDQASIIGGAIEFVRELEQLLQCLESQKRRRILGETGRDMTTTTTSSSSPITTVANQAQPLIITGNVTELEGGGGLREETAENKSCLADVEVKLLGFDAMIKILSRRRPGQLIKTIAALEDLHLSILHTNITTMEQTVLYSFNVKITSETRFTAEDIASSIQQIFSFIHANTNISGSSNLGNIVFT	binds
SWI3C, regulatory subunit of the SWI/SNF complex (protein, UniProt Q9XI07 1-807) MPASEDRRGKWKRKKRGGLSAARKPKQEEEDMEEEDEENNNNNNEEMDDVENADELQQNGGATPDPGLGIGEVVEDSGSRISDFPAVVKRVVIRPHASVMAVVAAERAGLIGETRGQGSLPALENISFGQLQALSTVPADSLDLERSDGSSSAYVISPPPIMDGEGVVKRFGDLVHVLPMHSDWFAPNTVDRLERQVVPQFFSGKSPNHTPESYMEFRNAIVSKYVENPEKTLTISDCQGLVDGVDIEDFARVFRFLDHWGIINYCATAQSHPGPLRDVSDVREDTNGEVNVPSAALTSIDSLIKFDKPNCRHKGGEVYSSLPSLDGDSPDLDIRIREHLCDSHCNHCSRPLPTVYFQSQKKGDILLCCDCFHHGRFVVGHSCLDFVRVDPMKFYGDQDGDNWTDQETLLLLEAVELYNENWVQIADHVGSKSKAQCILHFLRLPVEDGLLDNVEVSGVTNTENPTNGYDHKGTDSNGDLPGYSEQGSDTEIKLPFVKSPNPVMALVAFLASAVGPRVAASCAHESLSVLSEDDRMKSEGMQGKEASLLDGENQQQDGAHKTSSQNGAEAQTPLPQDKVMAAFRAGLSAAATKAKLFADHEEREIQRLSANIVNHQLKRMELKLKQFAEIETLLMKECEQVEKTRQRFSAERARMLSARFGSPGGISPQTNNLQGMSLSTGGNNINSLMHQQHQQQQASATSQPSIIPGFSNNPQVQAQMHFMARQQQQQQQQQQQQQQAFSFGPRLPLNAIQTNAGSTASPNVMFGNNQLNNPAAAGAASINQPSFSHPMVRSSTGSGSGSGLGLN	binds
SWI3D, regulatory subunit of the SWI/SNF complex (protein, UniProt Q8VY05 1-985) MEEKRRDSAGTLAFAGSSGDSPASEPMPAPRRRGGGLKRKANALGGSNFFSSAPSKRMLTREKAMLASFSPVHNGPLTRARQAPSIMPSAADGVKSEVLNVAVGADGEKPKEEEERNKAIREWEALEAKIEADFEAIRSRDSNVHVVPNHCGWFSWEKIHPLEERSLPSFFNGKLEGRTSEVYREIRNWIMGKFHSNPNIQIELKDLTELEVGDSEAKQEVMEFLDYWGLINFHPFPPTDTGSTASDHDDLGDKESLLNSLYRFQVDEACPPLVHKPRFTAQATPSGLFPDPMAADELLKQEGPAVEYHCNSCSADCSRKRYHCPKQADFDLCTECFNSGKFSSDMSSSDFILMEPAEAPGVGSGKWTDQETLLLLEALEIFKENWNEIAEHVATKTKAQCMLHFLQMPIEDAFLDQIDYKDPISKDTTDLAVSKDDNSVLKDAPEEAENKKRVDEDETMKEVPEPEDGNEEKVSQESSKPGDASEETNEMEAEQKTPKLETAIEERCKDEADENIALKALTEAFEDVGHSSTPEASFSFADLGNPVMGLAAFLVRLAGSDVATASARASIKSLHSNSGMLLATRHCYILEDPPDNKKDPTKSKSCSADAEGNDDNSHKDDQPEEKSKKAEEVSLNSDDREMPDTDTGKETQDSVSEEKQPGSRTENSTTKLDAVQEKRSSKPVTTDNSEKPVDIICPSQDKCSGKELQEPLKDGNKLSSENKDASQSTVSQSAADASQPEASRDVEMKDTLQSEKDPEDVVKTVGEKVQLAKEEGANDVLSTPDKSVSQQPIGSASAPENGTAGGNPNIEGKKEKDICEGTKDKYNIEKLKRAAISAISAAAVKAKNLAKQEEDQIRQLSGSLIEKQLHKLEAKLSIFNEAESLTMRVREQLERSRQRLYHERAQIIAARLGVPPSMSSKASLPTNRIAANFANVAQRPPMGMAFPRPPMPRPPGFPVPGSFVAATTMTGSSDPSPGSDNVSSV	binds
LUH (protein, UniProt O48847 1-787) MAQSNWEADKMLDVYIYDYLVKKKLHNTAKSFMTEGKVSPDPVAIDAPGGFLFEWWSVFWDIFIARTNEKHSEAAAAYIEAQQGKAKEQQMQIQQLQMMRQAQMQRRDPNHPSLGGPMNAIGSEGMIGQSNASALAAKMYEERMKQPNPMNSETSQPHLDARMALLKSATNHHGQIVQGNHQGGVSAALQQIQSRTQQPTEIKTEVNLGTSPRQLPVDPSTVYGQGILQSKPGMGSAGLNPGVSGLPLKGWPLTGIEQMRPGLGGPQVQKSFLQNQSQFQLSPQQQQHQMLAQVQAQGNMTNSPMYGGDMDPRRFTGLPRGNLNPKDGQQNANDGSIGSPMQSSSSKHISMPPVQQSSSQQQDHLLSQQSQQNNRKRKGPSSSGPANSTGTGNTVGPSNSQPSTPSTHTPVDGVAIAGNMHHVNSMPKGPMMYGSDGIGGLASSANQLLQDDMDQFGDVGALEDNVESFLSQDDGDGGSLFGTLKRNSSVHTETSKPFSFNEVSCIRKSASKVICCSFSYDGKLLASAGHDKKVFIWNMETLQVESTPEEHAHIITDVRFRPNSTQLATSSFDKTIKIWDASDPGYFLRTISGHAAPVMSIDFHPKKTELLCSCDSNNDIRFWDINASCVRAVKGASTQVRFQPRTGQFLAAASENTVSIFDIENNNKRVNIFKGHSSNVHSVCWSPNGELVASVSEDAVKLWSLSSGDCIHELSNSGNKFHSVVFHPSYPDLLVIGGYQAIELWNTMENKCMTVAGHECVISALAQSPSTGVVASASHDKSVKIWK	binds
